Data taken from article doi:10.1101/2023.08.07.552250.
No constants are given. Whether binding was seen depends on the method and setting. Some entries that bind do so weakly or less than the wild type.

T1: serine/arginine-rich 45 (SR45), SR45.1 isoform (Arabidopsis thaliana) (UniProt Q9SEE9)
T1 sequence: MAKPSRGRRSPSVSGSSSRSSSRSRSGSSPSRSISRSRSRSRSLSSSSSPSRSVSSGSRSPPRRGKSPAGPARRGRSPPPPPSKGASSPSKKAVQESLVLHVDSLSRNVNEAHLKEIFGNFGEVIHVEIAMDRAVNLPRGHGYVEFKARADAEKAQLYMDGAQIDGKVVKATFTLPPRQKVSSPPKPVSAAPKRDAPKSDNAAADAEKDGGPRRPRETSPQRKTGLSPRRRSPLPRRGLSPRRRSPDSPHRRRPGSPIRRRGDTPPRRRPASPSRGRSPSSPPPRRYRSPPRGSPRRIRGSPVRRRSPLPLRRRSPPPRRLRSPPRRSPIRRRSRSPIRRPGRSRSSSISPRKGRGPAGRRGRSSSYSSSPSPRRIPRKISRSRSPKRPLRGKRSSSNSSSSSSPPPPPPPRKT


Biological target: T1, serine/arginine-rich 45 (SR45), SR45.1 isoform (Arabidopsis thaliana)
Assay: two-hybrid

| binding | Binder |
| --- | --- |
| no binding | SR45.2 splicing isoform of SR45 (protein, UniProt Q9SEE9-2 1-407) MAKPSRGRRSPSVSGSSSRSSSRSRSGSSPSRSISRSRSRSRSLSSSSSPSRSVSSGSRSPPRRGKSPAGPARRGRSPPPPPSKGASSPSKKAVQESLVLHVDSLSRNVNEAHLKEIFGNFGEVIHVEIAMDRAVNLPRGHGYVEFKARADAEKAQLYMDGAQIDGKVVKATFTLPPRQKVSSPPKPVSAAPKRDAPKSDNAAADAEKDGGPRRPRERLSPRRRSPLPRRGLSPRRRSPDSPHRRRPGSPIRRRGDTPPRRRPASPSRGRSPSSPPPRRYRSPPRGSPRRIRGSPVRRRSPLPLRRRSPPPRRLRSPPRRSPIRRRSRSPIRRPGRSRSSSISPRKGRGPAGRRGRSSSYSSSPSPRRIPRKISRSRSPKRPLRGKRSSSNSSSSSSPPPPPPPRKT |
| binds | Y14 (protein, UniProt F4I9J7 1-202) MANIESEAVDFEPEEDDLMDEEGTAIDGADVSPRAGHPRLKSAIAGANGESAKKTKGRGFREEKDSDRQRRLSSRDFESLGSDGRPGPQRSVEGWIILVSGVHEETQEEDITNAFGDFGEIKNLNLNLDRRSGYVKGYALIEYEKKEEAQSAISAMNGAELLTQNVSVDWAFSSGPSGGESYRRKNSRYGRSQRSRSPRRRY |
| no binding | Cyp71 (protein, UniProt Q8W4D0 1-631) MEEESKNGGTTIPTEELAVVAVPPVVEEEEPMVGPGPAPRGKRKRPLQFEQAYLDSLPSANMYEKSYMHRDVVTHVAVSAAEFFISGSMDGHLKFWKKKGVGIEFAKHFRSHLGPIEGLAVSIDGLLCCTISNDHAVKIYDVVNYDMMAMIRLPYIPGAVEWVYKQGDVKAKLAVSDRDSLFVHIYDPRSGSNEPIASKEIHMNPIKVMKYNPVSDTMISGDTKGIIEYWSATTLQFPEDEVNFKLKSDTNLFEIIKCKTTISAIEVSPDGKQFSITAPDRRIRVFWFRTGKLRRVYDESLVVAQDLQRSDAPLYRLEAIDFGRRMAVEKELEKTESAPQPNAVFDESSNFLIYATFLGIKVINLHTNTVARILGKVESNERYLRVALYQGDQGGKKVRKIPAAAANVNESKEPLTDPTILCCAFKKHRIYMFSRREPEEPEDASQGRDVFNEKPAADELMSVSDIGNSATTSLPENVIMHTTLGDIHMKLYPEECPKTVENFTTHCRNGYYDNHLFHRVIRGFMIQTGDPLGDGTGGQSIWGREFEDEFHKSLRHDRPFTLSMANAGPNTNGSQFFITTVATPWLDNKHTVFGRVVKGMDVVQGIEKVKTDKNDRPYQDVKILNVTVPKS |
| no binding | Cyp65 (protein, UniProt Q9FJX0 1-595) MGKKQHSKDRMFITKTEWATEWGGAKSKENRTPFKSLPYYCCALTFLPFEDPVCTIDGSVFEITTIVPYIRKFGKHPVTGAPLKGEDLIPLIFHKNSEGEYHCPVLNKVFTEFTHIVAVKTTGNVFCYEAIKELNIKTKNWKELLTEEPFTRADLITIQNPNAVDGKVTVEFDHVKNGLKIDDEELKKMNSDPAYNINVSGDIKHMLADLGTDKAKEIALHGGGGNKARNERAAAIAAILESRSKIKEVSKAEQPKQTYSVVDAASASVFGRSADAAKAGSSDKTAARIAMHMAGDRTPVNSKMVKSRYSSGAASRSFTSSAFTPVTKNDFELIKVEKNPKKKGYVQFQTTHGDLNIELHCDIAPRACENFITLCERGYYNGVAFHRSIRNFMIQGGDPTGTGKGGESIWGKPFKDEPNSKLLHSGRGVVSMANSGPHTNGSQFFVLYKSATHLNYKHTVFGGVVGGLATLAAMENVPVDESDRPLEEIKIIEASVFVNPYTELDEEEEKEKAEKEKNEDKDIEKIGSWYSNPGSGTTEAGAGGGGVGKYLKAMSSTATKDTKGSLDSDISTIGVSKKRKTTASASTGFKDFSSW |
| binds | MAGO (protein, UniProt O23676 1-150) MAAEEATEFYLRYYVGHKGKFGHEFLEFEFREDGKLRYANNSNYKNDTIIRKEVFLTPAVLKECKRIVSESEILKEDDNNWPEPDRVGKQELEIVLGNEHISFATSKIGSLVDCQSSNDPEGLRIFYYLVQDLKCLVFSLISLHFKIKPI |
| no binding | GRP8 (protein, UniProt Q03251 1-169) MSEVEYRCFVGGLAWATNDEDLQRTFSQFGDVIDSKIINDRESGRSRGFGFVTFKDEKAMRDAIEEMNGKELDGRVITVNEAQSRGSGGGGGGRGGSGGGYRSGGGGGYSGGGGGGYSGGGGGGYERRSGGYGSGGGGGGRGYGGGGRREGGGYGGGDGGSYGGGGGGW |
| no binding | serine/arginine-rich 45 (SR45), SR45.1 isoform (protein, UniProt Q9SEE9-1 1-414) MAKPSRGRRSPSVSGSSSRSSSRSRSGSSPSRSISRSRSRSRSLSSSSSPSRSVSSGSRSPPRRGKSPAGPARRGRSPPPPPSKGASSPSKKAVQESLVLHVDSLSRNVNEAHLKEIFGNFGEVIHVEIAMDRAVNLPRGHGYVEFKARADAEKAQLYMDGAQIDGKVVKATFTLPPRQKVSSPPKPVSAAPKRDAPKSDNAAADAEKDGGPRRPRETSPQRKTGLSPRRRSPLPRRGLSPRRRSPDSPHRRRPGSPIRRRGDTPPRRRPASPSRGRSPSSPPPRRYRSPPRGSPRRIRGSPVRRRSPLPLRRRSPPPRRLRSPPRRSPIRRRSRSPIRRPGRSRSSSISPRKGRGPAGRRGRSSSYSSSPSPRRIPRKISRSRSPKRPLRGKRSSSNSSSSSSPPPPPPPRKT |
| binds | MOS14 (MODIFIER OF SNC1-1, 14) (protein, UniProt Q8GUL2 1-958) MEHQNAVKEALNALYHHPDDTVRVHADRWLQNFQGTLDAWQVADNLLHDSSSNLETLIFCSQTLRSKVQRDFEELPPGAFQKLRQSLTTLLKKFHKGPPKVRTQISIAVAALAVHVPAADWGDGGIISWLRDEMHMHPEYVPGFLELLTVLPEETFNYKIAARPDRRRQFEKELTSQMEAALSILSACLKISELKEQVLEAFASWLRLRHGIPGTVLACHPLVHAALSSLNCDPLSEASVNVISELIHHTASPSSGGISAQTPLIQVIVPQILSLQAHLRDSSKDEEDVKAIGRLFADVGDSYVELIATGSDEPMVIVHALLEVTAHPEFDIASMTFNFWHSLQLMLTKRESYSSLGSEASIEVERNRRLHIFQPAYQSLVSLVGFRVQYPEDYQGLSYEDLKEFKQTRYAVADVLIDAALILGGDTTLKILYMKLLEANAQTGNNFQDWRPAEAILFCIWAISNYVSVVEAEVMPQVMALLQNLPQQAQLLQTACLLVGAYSKWLNAAPASVSILPSIIRILMSGMGTSEDCAAAAALAFRHTCDDCRKNLCGYFEDLFNIYCMAINGGGGYKVSAEDSLNLVEALGMVVTELPLDQAKGALEKLCFSAASPLEEAAKEDLEKKHARELTVHIDRFAFLFRYVNHPEAVAAEINKHWAIFRVIFDARPWDMRTMESLCRACKYAVRTSGRYIIDTIGEMLEKIQFHYQQHHQPCFLYLSSEVIKIFGSDPSCAVYLKNLIETLFAHTTCLMTSIKEVTARPDIADDCFLLASRCLRYCPHLFIPSPIFPALVNCAMIGITVQHREACHSILTFLTDIFDLEKSVNEEQFVRIRDNIIIPRGATITRILIASLAGALPSSRLDTVTYSLLALTRTYRLQAVSWAKESVSLIPRTALTETESTKFLQALSDIAYGADVNSLIGQVEELSDVCRRNRTVQELVQAALKPLELNLVTAPVS |
| no binding | GRP7 (protein, UniProt Q03250 1-176) MASGDVEYRCFVGGLAWATDDRALETAFAQYGDVIDSKIINDRETGRSRGFGFVTFKDEKAMKDAIEGMNGQDLDGRSITVNEAQSRGSGGGGGHRGGGGGGYRSGGGGGYSGGGGSYGGGGGRREGGGGYSGGGGGYSSRGGGGGSYGGGRREGGGGYGGGEGGGYGGSGGGGGW |
